Data published in US20020187938A1 (priority 2000, published 2002).
HELM strings list residues between dots; [ac] is acetyl, [am] amide, other brackets name non-standard units. Where no end group is shown, it is not given here. The star is where a group is joined. Octanoyl = CCCCCCCC(=O)*

Assay: peptide synthesis
Conditions: whole synthesis, HPLC

Substance	purity (crude or final not stated)
GSS(Octanoyl)FLSPEAKLQPR	95.0%
H-GSS(Octanoyl)F-OH (N-terminus and C-terminus assumed; SMILES CCCCCCCC(=O)OC[C@H](NC(=O)[C@H](CO)NC(=O)CN)C(=O)N[C@@H](Cc1ccccc1)C(=O)O)	95.6%
PEPTIDE1{G.S.[Ser(Octanoyl)].F.L.S.P.E}$$$$V2.0	97.8%
